This is a selection; strong and weak results do not stand in their true shares. Calls are pooled over several reports, among them a noisy single-well screen. Some of the results follow.
How the values were obtained:
Settings in all cases: stereoisomer not certain
[1] = target: T1, OR6K2 (Homo sapiens) (UniProt Q8NGY2)
T1 sequence (whole entry): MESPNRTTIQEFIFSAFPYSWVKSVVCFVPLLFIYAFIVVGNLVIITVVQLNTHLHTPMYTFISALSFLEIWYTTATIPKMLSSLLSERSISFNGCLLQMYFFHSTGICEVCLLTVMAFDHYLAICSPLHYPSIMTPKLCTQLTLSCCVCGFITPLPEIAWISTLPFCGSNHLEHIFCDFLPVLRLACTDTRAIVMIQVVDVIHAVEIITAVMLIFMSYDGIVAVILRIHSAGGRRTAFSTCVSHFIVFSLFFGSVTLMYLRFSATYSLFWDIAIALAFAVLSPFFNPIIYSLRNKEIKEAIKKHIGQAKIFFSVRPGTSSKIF
Outline: (§1)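 Whether a receptor–molecule pair is responsive (active) rests on the original authors' judgment that its measured signal was statistically different from baseline. Pairs without that judgment are non-responsive (inactive). Sources used varied assay methods, commonly transient luciferase assays in mammalian cell lines.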

[2] = tested on: T2, OR6K3
T2 sequence (whole entry): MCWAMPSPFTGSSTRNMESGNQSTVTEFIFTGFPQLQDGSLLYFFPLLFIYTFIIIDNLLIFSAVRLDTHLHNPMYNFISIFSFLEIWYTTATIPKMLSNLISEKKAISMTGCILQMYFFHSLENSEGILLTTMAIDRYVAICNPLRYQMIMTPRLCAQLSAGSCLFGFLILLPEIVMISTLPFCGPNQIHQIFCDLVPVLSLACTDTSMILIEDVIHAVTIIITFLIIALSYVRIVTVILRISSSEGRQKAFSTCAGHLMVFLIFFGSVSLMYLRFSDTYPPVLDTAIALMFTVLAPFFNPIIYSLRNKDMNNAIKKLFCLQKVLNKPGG
Outline: as §1

[3] = tested on: T3, OR6K3; remark: listed apart in the source
T3 sequence (whole entry): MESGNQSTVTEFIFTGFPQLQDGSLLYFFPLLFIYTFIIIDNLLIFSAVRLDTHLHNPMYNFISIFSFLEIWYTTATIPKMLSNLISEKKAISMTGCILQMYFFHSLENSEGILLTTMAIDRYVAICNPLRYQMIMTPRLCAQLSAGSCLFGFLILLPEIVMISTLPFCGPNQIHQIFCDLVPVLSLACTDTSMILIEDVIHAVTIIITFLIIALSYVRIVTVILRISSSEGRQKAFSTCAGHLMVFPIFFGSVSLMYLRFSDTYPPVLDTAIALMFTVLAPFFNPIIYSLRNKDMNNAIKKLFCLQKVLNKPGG
Outline: as §1

[4] = tested on: T4, OR6K6
T4 sequence (whole entry): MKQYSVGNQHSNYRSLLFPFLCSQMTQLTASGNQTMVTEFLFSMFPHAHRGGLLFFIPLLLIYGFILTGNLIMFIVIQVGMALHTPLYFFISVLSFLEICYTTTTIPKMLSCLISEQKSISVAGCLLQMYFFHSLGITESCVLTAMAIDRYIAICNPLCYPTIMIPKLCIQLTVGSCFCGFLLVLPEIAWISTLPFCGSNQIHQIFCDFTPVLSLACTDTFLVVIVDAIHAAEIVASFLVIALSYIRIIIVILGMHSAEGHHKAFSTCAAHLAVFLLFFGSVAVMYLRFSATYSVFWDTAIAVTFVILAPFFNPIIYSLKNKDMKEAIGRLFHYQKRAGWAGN
Outline: as §1

[5] = tested on: T5, OR6K6; remark: listed apart in the source
T5 sequence (whole entry): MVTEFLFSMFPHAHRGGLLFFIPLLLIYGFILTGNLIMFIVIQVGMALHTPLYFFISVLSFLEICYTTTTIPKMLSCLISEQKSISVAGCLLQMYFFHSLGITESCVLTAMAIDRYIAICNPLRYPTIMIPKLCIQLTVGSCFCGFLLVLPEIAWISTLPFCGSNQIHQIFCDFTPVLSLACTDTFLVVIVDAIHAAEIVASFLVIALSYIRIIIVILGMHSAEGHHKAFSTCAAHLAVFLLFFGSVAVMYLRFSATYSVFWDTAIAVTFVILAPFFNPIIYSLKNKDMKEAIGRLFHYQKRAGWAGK
Outline: as §1

[6] = target: T6, OR6M1 (Homo sapiens) (UniProt Q8NGM8)
T6 sequence (whole entry): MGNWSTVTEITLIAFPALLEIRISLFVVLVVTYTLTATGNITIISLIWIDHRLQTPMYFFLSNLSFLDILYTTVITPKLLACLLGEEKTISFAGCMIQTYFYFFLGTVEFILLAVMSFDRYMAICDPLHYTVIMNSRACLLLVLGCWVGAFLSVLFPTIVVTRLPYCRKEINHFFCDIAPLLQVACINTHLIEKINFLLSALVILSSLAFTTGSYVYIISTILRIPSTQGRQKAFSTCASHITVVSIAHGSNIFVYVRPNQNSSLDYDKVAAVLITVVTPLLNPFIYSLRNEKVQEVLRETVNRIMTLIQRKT
Outline: as §1

[7] = tested on: T7, OR6N1
T7 sequence (whole entry): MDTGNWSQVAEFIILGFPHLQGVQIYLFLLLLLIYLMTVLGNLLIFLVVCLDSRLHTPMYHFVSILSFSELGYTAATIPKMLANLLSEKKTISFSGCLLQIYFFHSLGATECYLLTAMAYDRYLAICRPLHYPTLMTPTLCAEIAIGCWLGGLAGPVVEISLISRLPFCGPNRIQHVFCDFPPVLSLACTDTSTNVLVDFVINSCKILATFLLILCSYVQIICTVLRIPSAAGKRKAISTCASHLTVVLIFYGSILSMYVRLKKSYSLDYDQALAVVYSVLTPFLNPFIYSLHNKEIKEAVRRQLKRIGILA
Outline: as §1

[8] = target: T8, OR6N2 (Homo sapiens) (UniProt Q8NGY6)
T8 sequence (whole entry): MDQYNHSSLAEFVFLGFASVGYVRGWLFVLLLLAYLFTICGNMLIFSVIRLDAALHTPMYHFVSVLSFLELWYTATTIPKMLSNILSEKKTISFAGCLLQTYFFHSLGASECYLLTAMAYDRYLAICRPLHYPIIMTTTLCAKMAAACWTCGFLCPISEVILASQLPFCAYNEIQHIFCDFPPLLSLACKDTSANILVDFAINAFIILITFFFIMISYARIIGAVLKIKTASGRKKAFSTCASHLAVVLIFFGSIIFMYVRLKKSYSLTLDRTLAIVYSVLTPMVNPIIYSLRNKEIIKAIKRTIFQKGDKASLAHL
Outline: as §1

[9] = target: T9, OR6P1 (Homo sapiens) (UniProt Q8NGX9)
T9 sequence (whole entry): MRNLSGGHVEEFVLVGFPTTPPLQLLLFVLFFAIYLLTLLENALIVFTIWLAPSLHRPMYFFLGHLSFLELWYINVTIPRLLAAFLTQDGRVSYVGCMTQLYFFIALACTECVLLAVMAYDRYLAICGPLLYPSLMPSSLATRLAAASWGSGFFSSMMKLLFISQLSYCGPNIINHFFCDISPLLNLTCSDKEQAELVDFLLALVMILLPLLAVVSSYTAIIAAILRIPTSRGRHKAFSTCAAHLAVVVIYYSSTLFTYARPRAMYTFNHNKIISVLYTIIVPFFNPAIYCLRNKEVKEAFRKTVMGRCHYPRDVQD
Outline: as §1

[10] = target: T10, OR6Q1 (Homo sapiens) (UniProt Q8NGQ2)
T10 sequence (whole entry): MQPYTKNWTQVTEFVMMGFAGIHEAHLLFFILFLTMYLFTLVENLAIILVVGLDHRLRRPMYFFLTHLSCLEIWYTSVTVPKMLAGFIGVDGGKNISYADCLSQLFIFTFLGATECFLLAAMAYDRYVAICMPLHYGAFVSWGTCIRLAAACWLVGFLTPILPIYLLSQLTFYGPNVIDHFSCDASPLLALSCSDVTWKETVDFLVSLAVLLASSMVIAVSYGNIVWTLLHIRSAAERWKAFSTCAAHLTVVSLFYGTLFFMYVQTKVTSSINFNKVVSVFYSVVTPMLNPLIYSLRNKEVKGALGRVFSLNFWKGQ
Outline: as §1

Measured: odorant receptor agonist call;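 also: active if original authors judged signal statistically different from baseline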

CS
inactive: all assays above

Reference: the M2OR odorant receptor database
